{
  "source": "patent US8299048B2",
  "about": "“Hexahydrocyclopentyl[f]indazole sulfonamides and derivatives thereof as selective glucocorticoid receptor modulators” (Merck Sharp & Dohme Corp., priority 2008, dated 2012)",
  "note": "pIC50: −log10 of the molar value. Some of these results come from one statement about several compounds together.",
  "data": [
    {"molecular_target": "T1, glucocorticoid receptor (Homo sapiens, UniProt P04150)", "T1 construct": "endogenous in cells", "T1 sequence (P04150 1-777)": "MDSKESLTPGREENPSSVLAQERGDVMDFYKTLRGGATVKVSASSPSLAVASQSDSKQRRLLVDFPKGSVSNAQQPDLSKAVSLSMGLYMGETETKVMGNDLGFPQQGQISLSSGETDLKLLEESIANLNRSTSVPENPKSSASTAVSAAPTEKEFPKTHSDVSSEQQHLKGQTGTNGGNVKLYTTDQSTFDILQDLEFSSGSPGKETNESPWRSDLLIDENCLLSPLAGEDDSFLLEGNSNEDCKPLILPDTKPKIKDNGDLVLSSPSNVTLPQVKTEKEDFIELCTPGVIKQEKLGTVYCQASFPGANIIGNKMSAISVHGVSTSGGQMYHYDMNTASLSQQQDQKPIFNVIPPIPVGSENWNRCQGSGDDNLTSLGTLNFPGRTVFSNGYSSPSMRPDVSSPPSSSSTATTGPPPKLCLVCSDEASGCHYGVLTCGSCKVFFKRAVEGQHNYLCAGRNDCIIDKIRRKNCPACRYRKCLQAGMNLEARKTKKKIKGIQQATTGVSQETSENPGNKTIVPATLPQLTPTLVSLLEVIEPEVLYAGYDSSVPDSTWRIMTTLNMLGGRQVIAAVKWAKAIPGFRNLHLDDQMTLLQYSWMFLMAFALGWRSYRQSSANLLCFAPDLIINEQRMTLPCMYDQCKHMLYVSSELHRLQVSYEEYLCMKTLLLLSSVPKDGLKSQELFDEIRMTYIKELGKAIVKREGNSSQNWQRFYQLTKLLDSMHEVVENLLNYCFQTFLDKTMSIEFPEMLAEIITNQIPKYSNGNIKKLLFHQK", "assay": "Ligand binding assay (GR BIND)", "conditions": "displacement of 3H-DEX, MDA-MB-453 cell lysate, DEX as reference", "protocol": "• Materials: • Binding Buffer: TEGM (10 mM Tris-HCl, 1 mM EDTA, 10% glycerol, 1 mM beta-mecaptoethanol, 10 mM Sodium Molybdate, pH 7.2) • 50% HAP Slurry: Calbiochem Hydroxylapatite, Fast Flow, in 10 mM Tris, pH 8.0 and 1 mM EDTA. • Wash Buffer: 40 mM Tris, pH7.5, 100 mM KCl, 1 mM EDTA and 1 mM EGTA.\nPhenol red-free Trypsin-EDTA is diluted in the same PBS1:10. The cell layers are rinsed with 1× Trypsin, extra Trypsin is poured out, and the cell layers are incubated at 37° C. for ˜2 min. The flask is tapped and checked for signs of cell detachment. Once the cells begin to slide off the flask, the complete media is added. The cells are counted at this point, then diluted to the appropriate concentration and split into flasks or dishes for further culturing (Usually 1:3 to 1:6 dilution).\nWhen the cells are 70 to 85% confluent, they are detached as described above, and collected by centrifuging at 1000 g for 10 minutes at 4° C. The cell pellet is washed twice with TEGM (10 mM Tris-HCl, 1 mM EDTA, 10% glycerol, 1 mM beta-mercaptoethanol, 10 mM Sodium Molybdate, pH 7.2). After the final wash, the cells are resuspended in TEGM at a concentration of 10^7 cells/mL. The cell suspension is snap frozen in liquid nitrogen or ethanol/dry ice bath and transferred to −80° C. freezer on dry ice. Before setting up the binding assay, the frozen samples are left on ice-water to just thaw (˜1 hr). Then the samples are centrifuged at 12,500 g to 20,000 g for 30 min at 4° C. The supernatant is used to set-up assay right away. If using 50 μL of supernatant, the test compound can be prepared in 50 μL of the TEGM buffer.\n1×TEGM buffer is prepared, and the isotope-containing assay mixture is prepared in the following order: EtOH (2% final concentration in reaction), 3H-DEX (Amersham Biosciences) and 1×TEGM. [e.g. For 100 samples, 200 μL (100×2) of EtOH+4.25 μL of 1:10 ^3H—Dex stock+2300 μL (100×23) 1×TEGM]. The compound is serially diluted, e.g., if starting final conc. is 1 μM, and the compound is in 25 μL of solution, for duplicate samples, 75 μL of 4×1 μM solution is made and 3 μL of 100 μM is added to 72 μL of buffer, and 1:5 serial dilution.\n25 μL of ^3H-DEX (6 nM) trace and 25 μL compound solution are first mixed together, followed by addition of 50 μL receptor solution. The reaction is gently mixed, spun briefly at about 200 rpm and incubated at 4° C. overnight. 100 μL of 50% HAP slurry is prepared and added to the incubated reaction which is then vortexed and incubated on ice for 5 to 10 minutes. The reaction mixture is vortexed twice more to resuspend HAP while incubating reaction. The samples in 96-well format are then washed in wash buffer using The FilterMate™ Universal Harvester plate washer (Packard). The washing process transfers HAP pellet containing ligand-bound expressed receptor to Unifilter-96 GF/B filter plate (Packard). The HAP pellet on the filter plate is incubated with 50 μL of MICROSCINT (Packard) scintillint for 30 minutes before being counted on the TopCount microscintillation counter (Packard). […] are calculated using DEX as a reference.", "values": [
      {"smiles": "C[C@]12Cc3cnn(-c4ccc(F)cc4)c3C=C1CC[C@@H]2CN(CC1CC1)S(=O)(=O)c1ccccc1C(F)(F)F", "note": "[Example 4, N-(cyclopropylmethyl)-N-{[(4αR,5S)-1-(4-fluorophenyl)-4α-methyl-1,4,4α,5,6,7-hexahydrocyclopenta[f]indazol-5-yl]methyl}-2-(trifluoromethyl)benzenesulfonamide]", "pIC50": "> 6.00"},
      {"smiles": "C[C@]12Cc3cnn(-c4ccc(F)cc4)c3C=C1CC[C@@H]2CN(CC1CC1)S(=O)(=O)c1cc(C(F)(F)F)ccc1Cl", "note": "[Example 5, 2-chloro-N-(cyclopropylmethyl)-N-{[(4αR,5S)-1-(4-fluorophenyl)-4α-methyl-1,4,4α,5,6,7-hexahydrocyclopenta[f]indazol-5-yl]methyl}-5-(trifluoromethyl)benzenesulfonamide]", "pIC50": "> 6.00"},
      {"smiles": "CC(=O)Nc1ccc(S(=O)(=O)N(CC2CC2)C[C@H]2CCC3=Cc4c(cnn4-c4ccc(F)cc4)C[C@@]32C)cc1", "note": "[Example 6, N-{4-[((cyclopropylmethyl){[(4αR,5S)-1-(4-fluorophenyl)-4α-methyl-1,4,4α,5,6,7-hexahydrocyclopenta[f]indazol-5-yl]methyl}amino)sulfonyl]phenyl}acetamide]", "pIC50": "> 6.00"},
      {"smiles": "Cc1nn(C)c(Cl)c1S(=O)(=O)N(CC1CC1)C[C@H]1CCC2=Cc3c(cnn3-c3ccc(F)cc3)C[C@@]21C", "note": "[Example 7]", "pIC50": "> 6.00"},
      {"smiles": "CN1CCOc2cc(S(=O)(=O)N(CC3CC3)C[C@H]3CCC4=Cc5c(cnn5-c5ccc(F)cc5)C[C@@]43C)ccc21", "note": "[Example 8, N-(cyclopropylmethyl)-N-{[(4αR,5S)-1-(4-fluorophenyl)-4α-methyl-1,4,4α,5,6,7-hexahydrocyclopenta[f]indazol-5-yl]methyl}-4-methyl-3,4-dihydro-2H-1,4-benzoxazine-7-sulfonamide]", "pIC50": "> 6.00"},
      {"smiles": "CCCCCc1ccc(S(=O)(=O)N(CC2CC2)C[C@H]2CCC3=Cc4c(cnn4-c4ccc(F)cc4)C[C@@]32C)cc1", "note": "[Example 9, N-(cyclopropylmethyl)-N-{[(4αR,5S)-1-(4-fluorophenyl)-4α-methyl-1,4,4α,5,6,7-hexahydrocyclopenta[f]indazol-5-yl]methyl}-4-pentylbenzenesulfonamide]", "pIC50": "> 6.00"},
      {"smiles": "C[C@]12Cc3cnn(-c4ccc(F)cc4)c3C=C1CC[C@@H]2CN(CC1CC1)S(=O)(=O)c1ccc(-c2ccccc2)cc1", "note": "[Example 10, N-(cyclopropylmethyl)-N-{[(4αR,5S)-1-(4-fluorophenyl)-4α-methyl-1,4,4α,5,6,7-hexahydrocyclopenta[f]indazol-5-yl]methyl}biphenyl-4-sulfonamide]", "pIC50": "> 6.00"},
      {"smiles": "Cc1noc(C)c1S(=O)(=O)N(CC1CC1)C[C@H]1CCC2=Cc3c(cnn3-c3ccc(F)cc3)C[C@@]21C", "note": "[Example 11, N-(cyclopropylmethyl)-N-{[(4αR,5S)-1-(4-fluorophenyl)-4α-methyl-1,4,4α,5,6,7-hexahydrocyclopenta[f]indazol-5-yl]methyl}-3,5-dimethylisoxazole-4-sulfonamide]", "pIC50": "> 6.00"},
      {"smiles": "C[C@]12Cc3cnn(-c4ccc(F)cc4)c3C=C1CC[C@@H]2CN(CC1CC1)S(=O)(=O)/C=C/c1ccccc1", "note": "[Example 13, (E)-N-(cyclopropylmethyl)-N-{[(4αR,5S)-1-(4-fluorophenyl)-4α-methyl-1,4,4α,5,6,7-hexahydrocyclopenta[f]indazol-5-yl]methyl}-2-phenylethylenesulfonamide]", "pIC50": "> 6.00"},
      {"smiles": "CNC(=O)Nc1ccc(S(=O)(=O)N(CC2CC2)C[C@H]2CCC3=Cc4c(cnn4-c4ccc(F)cc4)C[C@@]32C)c(Cl)c1", "note": "[Example 14, 2-chloro-N-(cyclopropylmethyl)-N-{[(4αR,5S)-1-(4-fluorophenyl)-4α-methyl-1,4,4α,5,6,7-hexahydrocyclopenta[f]indazol-5-yl]methyl}-4-{[(methylamino)carbonyl]amino}-benzenesulfonamide]", "pIC50": "> 6.00"},
      {"smiles": "C[C@]12Cc3cnn(-c4ccc(F)cc4)c3C=C1CC[C@@H]2CN(CC1CC1)S(=O)(=O)c1ccc(F)c(Cl)c1", "note": "[Example 15, 3-chloro-N-(cyclopropylmethyl)-4-fluoro-N-{[(4αR,5S)-1-(4-fluorophenyl)-4α-methyl-1,4,4α,5,6,7-hexahydrocyclopenta[f]indazol-5-yl]methyl}benzenesulfonamide]", "pIC50": "> 6.00"},
      {"smiles": "COC(=O)c1ccccc1S(=O)(=O)N(CC1CC1)C[C@H]1CCC2=Cc3c(cnn3-c3ccc(F)cc3)C[C@@]21C", "note": "[Example 18, methyl 2-[((cyclopropylmethyl){[(4αR,5S)-1-(4-fluorophenyl)-4α-methyl-1,4,4α,5,6,7-hexahydrocyclopenta[f]indazol-5 yl]methyl}amino)sulfonyl]benzoate]", "pIC50": "> 6.00"},
      {"smiles": "C[C@]12Cc3cnn(-c4ccc(F)cc4)c3C=C1CC[C@@H]2CN(CCO)S(=O)(=O)c1ccc(F)c(Cl)c1", "note": "[Example 19, 3-chloro-4-fluoro-N-{[(4αR,5S)-1-(4-fluorophenyl)-4α-methyl-1,4,4α,5,6,7-hexahydrocyclopenta[f]indazol-5-yl]methyl}-N-(2-hydroxyethyl)benzenesulfonamide]", "pIC50": "> 6.00"},
      {"smiles": "C[C@]12Cc3cnn(-c4ccc(F)cc4)c3C=C1CC[C@@H]2CN(CC#N)S(=O)(=O)c1ccc(F)c(Cl)c1", "note": "[Example 20, 3-chloro-N-(cyanomethyl)-4-fluoro-N-{[(4αR,5S)-1-(4-fluorophenyl)-4α-methyl-1,4,4α,5,6,7-hexahydrocyclopenta[f]indazol-5-yl]methyl}benzenesulfonamide]", "pIC50": "> 6.00"},
      {"smiles": "Cc1oncc1S(=O)(=O)N(CC#N)C[C@H]1CCC2=Cc3c(cnn3-c3ccc(F)cc3)C[C@@]21C", "note": "[Example 23, N-(cyanomethyl)-N-{[(4αR,5S)-1-(4-fluorophenyl)-4α-methyl-1,4,4α,5,6,7-hexahydrocyclopenta[f]indazol-5-yl]methyl}-5-methylisoxazole-4-sulfonamide]", "pIC50": "> 6.00"},
      {"smiles": "C[C@]12Cc3cnn(-c4ccc(F)cc4)c3C=C1CC[C@@H]2CN(CC#N)S(=O)(=O)c1cc(Cl)c(Cl)s1", "note": "[Example 24, 4,5-dichloro-N-(cyanomethyl)-N-{[(4αR,5S)-1-(4-fluorophenyl)-4α-methyl-1,4,4α,5,6,7-hexahydrocyclopenta[f]indazol-5-yl]methyl}thiophene-2-sulfonamide]", "pIC50": "> 6.00"},
      {"smiles": "C[C@]12Cc3cnn(-c4ccc(F)cc4)c3C=C1CC[C@@H]2CN(CC#N)S(=O)(=O)c1ccc(F)c(F)c1", "note": "[Example 25, N-(cyanomethyl)-3,4-difluoro-N-{[(4αR,5S)-1-(4-fluorophenyl)-4α-methyl-1,4,4α,5,6,7-hexahydrocyclopenta[f]indazol-5-yl]methyl}benzenesulfonamide]", "pIC50": "> 6.00"}
    ]}
  ]
}
